PubChem BioAssay AID1508597, Cure First, 2020

Aim: 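Genes whose silencing sensitises or protects ovarian cancer cells against rucaparib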 (primary screen)
System: human ovarian carcinoma lines grown from tumours: OCI-P5x (papillary serous) and OCI-C5x (clear cell)
Knock-down reagent: siRNA pool against human genes, 1.25 pmol siRNA per well
Timing: 72 h or 96 h, depending on the cell culture
Challenge: rucaparib 20 µM (about IC30) or vehicle, present until read-out
Rucaparib or vehicle: Vehicle
Cell line: OCI-P5x (serous)
Measured: 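ATP luminescence measured at 72 or 96 h according to the culture, then normalised and expressed as percent viability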
Reading the numbers: viability, normalised: higher = more viable cells remaining
Active means: 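Active when normalised viability falls below 80 percent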
Calls: active = viability under 80%; inactive = viability 80% or more
This is a random part of the about 2,100 reagents, under one of the conditions tested. 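Calls flag viability under 80% in either arm, not effects specific to rucaparib; the reference for percent is not stated.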 A reagent listed more than once was tested more than once; the source does not tell the runs apart. No sequences are given here. Not stated in the record: the 100% reference.

| gene symbol | technical replicate | viability, normalised (%) | Outcome |
| --- | --- | --- | --- |
| UTP3 | 1 | 79 | active |
| UTP3 | 2 | 63.2 | active |
| UTP3 | 3 | 83.5 | inactive |
| IKBKB | 1 | 69.8 | active |
| IKBKB | 2 | 59.9 | active |
| IKBKB | 3 | 66.6 | active |
| PES1 | 1 | 74.3 | active |
| PES1 | 2 | 71.3 | active |
| PES1 | 3 | 78.1 | active |
| MBTD1 | 1 | 54.7 | active |
| MBTD1 | 2 | 67.6 | active |
| MBTD1 | 3 | 58.3 | active |
| GRB10 | 1 | 68.6 | active |
| GRB10 | 2 | 64.9 | active |
| GRB10 | 3 | 67.9 | active |
| PGGT1B | 1 | 53.1 | active |
| PGGT1B | 2 | 54.9 | active |
| PGGT1B | 3 | 57.3 | active |
| CPS1 | 1 | 59.3 | active |
| CPS1 | 2 | 66.5 | active |
| CPS1 | 3 | 55.5 | active |
| MAP3K20 | 1 | 69.7 | active |
| MAP3K20 | 2 | 75.6 | active |
| MAP3K20 | 3 | 75 | active |
| CTCFL | 1 | 43.1 | active |
| CTCFL | 2 | 46.7 | active |
| CTCFL | 3 | 54.8 | active |
| CECR2 | 1 | 76.1 | active |
| CECR2 | 1 | 90.9 | inactive |
| CECR2 | 2 | 104 | inactive |
| CECR2 | 2 | 62.2 | active |
| CECR2 | 3 | 75.5 | active |
| CECR2 | 3 | 99.7 | inactive |
| CHEK2 | 1 | 62.8 | active |
| CHEK2 | 1 | 94.9 | inactive |
| CHEK2 | 2 | 62.5 | active |
| CHEK2 | 2 | 103 | inactive |
| CHEK2 | 3 | 71.8 | active |
| CHEK2 | 3 | 63.3 | active |
| NRXN3 | 1 | 52.6 | active |
| NRXN3 | 2 | 65.8 | active |
| NRXN3 | 3 | 76.1 | active |
| DHX37 | 1 | 59.8 | active |
| DHX37 | 2 | 66.7 | active |
| DHX37 | 3 | 69.1 | active |
| REV3L | 1 | 37 | active |
| REV3L | 2 | 49.1 | active |
| REV3L | 3 | 43.6 | active |

Taken from above.
Result for GRB10, technical replicate 1 in “Outcome”: active
REV3L, technical replicate 1, Outcome → active
IKBKB, technical replicate 1, viability, normalised (%) → 69.8
Entry for PES1, technical replicate 2 in “viability, normalised (%)”: 71.3
NRXN3, technical replicate 3, viability, normalised (%) → 76.1
Entry of NRXN3, technical replicate 1 under “viability, normalised (%)”: 52.6

More records:
| gene symbol | technical replicate | viability, normalised (%) | Outcome |
| --- | --- | --- | --- |
| PFKP | 1 | 89.5 | inactive |
| PFKP | 2 | 69.6 | active |
| PFKP | 3 | 68.3 | active |
| CYP7A1 | 1 | 76.7 | active |
| CYP7A1 | 2 | 82.3 | inactive |
| CYP7A1 | 3 | 80.5 | inactive |
| PARP15 | 1 | 38.7 | active |
| PARP15 | 2 | 29.6 | active |
| PARP15 | 3 | 56.2 | active |
| GAK | 1 | 82.2 | inactive |
| GAK | 2 | 70.2 | active |
| GAK | 3 | 56.8 | active |
| EIF2AK3 | 1 | 74.1 | active |
| EIF2AK3 | 2 | 64.3 | active |
| EIF2AK3 | 3 | 72.2 | active |
| SMARCAL1 | 1 | 52 | active |
| SMARCAL1 | 1 | 65.6 | active |
| SMARCAL1 | 2 | 83.4 | inactive |
| SMARCAL1 | 2 | 49.3 | active |
| SMARCAL1 | 3 | 77.3 | active |
| SMARCAL1 | 3 | 62 | active |
| MACROD1 | 1 | 62.8 | active |
| MACROD1 | 2 | 71.5 | active |
| MACROD1 | 3 | 74.6 | active |
| SCMH1 | 1 | 44.5 | active |
| SCMH1 | 2 | 70.6 | active |
| SCMH1 | 3 | 155 | inactive |
